PubChem BioAssay AID1259326 | Drosophila RNAi Screening Center, 2017

Test: 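Autophagy genes whose loss alters cell survival in toxic zinc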
System: Drosophila S2R+ cells
Knock-down reagent: long dsRNA against Drosophila genes
Timing: about 5 days (4 days of RNAi, then 1 day of zinc)
Challenge: zinc chloride added to 15 mM final for one day
Read-out: 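Luminescent ATP signal marks surviving cells, read after RNAi for 4 days then 15 mM zinc chloride for 1 day; z-scores are replicate means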
Direction: averaged z-score: higher = more ATP than other wells, i.e. more surviving cells, after zinc; ATP luminescence: higher = more ATP, i.e. more surviving cells
Rule for the call: 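Active if the averaged z-score exceeds 1.5 or falls under -1.5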
In all, the deposit lists 573 reagents; this is a part drawn at random. 39 of them (6.8%) were called active. 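All actives have raised ATP, meaning more surviving cells; in these data active calls sit at averaged z-scores near 1.5 or above.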 Raw values are not corrected between plates. Not stated in the record: the amount of reagent.

{"gene": "Tudor-SN (GeneID 38045)", "DRSC id": "DRSC08581", "averaged z-score": 0.0966, "ATP luminescence, replicate 1": 77594, "ATP luminescence, replicate 2": 95331, "Outcome": "inactive"}
{"gene": "Tudor-SN (GeneID 38045)", "DRSC id": "DRSC41253", "averaged z-score": -0.303, "ATP luminescence, replicate 1": 65708, "ATP luminescence, replicate 2": 70682, "Outcome": "inactive"}
{"gene": "Tudor-SN (GeneID 38045)", "DRSC id": "DRSC41254", "averaged z-score": -0.118, "ATP luminescence, replicate 1": 69773, "ATP luminescence, replicate 2": 76385, "Outcome": "inactive"}
{"gene": "Cand1 (GeneID 34403)", "DRSC id": "DRSC01992", "averaged z-score": 0.774, "ATP luminescence, replicate 1": 1.13e5, "ATP luminescence, replicate 2": 85412, "Outcome": "inactive"}
{"gene": "Cand1 (GeneID 34403)", "DRSC id": "DRSC37484", "averaged z-score": -0.526, "ATP luminescence, replicate 1": 65228, "ATP luminescence, replicate 2": 65022, "Outcome": "inactive"}
{"gene": "Cand1 (GeneID 34403)", "DRSC id": "DRSC41192", "averaged z-score": -0.13, "ATP luminescence, replicate 1": 65348, "ATP luminescence, replicate 2": 70150, "Outcome": "inactive"}
{"gene": "emb (GeneID 34167)", "DRSC id": "DRSC03528", "averaged z-score": -0.208, "ATP luminescence, replicate 1": 92723, "ATP luminescence, replicate 2": 72002, "Outcome": "inactive"}
{"gene": "emb (GeneID 34167)", "DRSC id": "DRSC33027", "averaged z-score": -0.0533, "ATP luminescence, replicate 1": 81687, "ATP luminescence, replicate 2": 55745, "Outcome": "inactive"}
{"gene": "emb (GeneID 34167)", "DRSC id": "DRSC33028", "averaged z-score": -0.0468, "ATP luminescence, replicate 1": 72141, "ATP luminescence, replicate 2": 83108, "Outcome": "inactive"}
{"gene": "Nsf2 (GeneID 41694)", "DRSC id": "DRSC22104", "averaged z-score": -0.139, "ATP luminescence, replicate 1": 86239, "ATP luminescence, replicate 2": 74592, "Outcome": "inactive"}
{"gene": "Nsf2 (GeneID 41694)", "DRSC id": "DRSC27428", "averaged z-score": 0.549, "ATP luminescence, replicate 1": 1.01e5, "ATP luminescence, replicate 2": 70785, "Outcome": "inactive"}
{"gene": "Nsf2 (GeneID 41694)", "DRSC id": "DRSC41232", "averaged z-score": 1.25, "ATP luminescence, replicate 1": 88722, "ATP luminescence, replicate 2": 1.03e5, "Outcome": "inactive"}
{"gene": "Afg3l2 (GeneID 39922)", "DRSC id": "DRSC29981", "averaged z-score": 0.277, "ATP luminescence, replicate 1": 89584, "ATP luminescence, replicate 2": 73169, "Outcome": "inactive"}
{"gene": "Afg3l2 (GeneID 39922)", "DRSC id": "DRSC34402", "averaged z-score": 0.429, "ATP luminescence, replicate 1": 84266, "ATP luminescence, replicate 2": 86959, "Outcome": "inactive"}
{"gene": "Afg3l2 (GeneID 39922)", "DRSC id": "DRSC34403", "averaged z-score": 0.923, "ATP luminescence, replicate 1": 84685, "ATP luminescence, replicate 2": 89970, "Outcome": "inactive"}
{"gene": "niki (GeneID 42959)", "DRSC id": "DRSC14285", "averaged z-score": -0.13, "ATP luminescence, replicate 1": 1.08e5, "ATP luminescence, replicate 2": 67577, "Outcome": "inactive"}
{"gene": "niki (GeneID 42959)", "DRSC id": "DRSC31199", "averaged z-score": 0.237, "ATP luminescence, replicate 1": 74043, "ATP luminescence, replicate 2": 76102, "Outcome": "inactive"}
{"gene": "niki (GeneID 42959)", "DRSC id": "DRSC36953", "averaged z-score": -0.372, "ATP luminescence, replicate 1": 73186, "ATP luminescence, replicate 2": 68607, "Outcome": "inactive"}

3 entries from above, sorted by “averaged z-score”, lowest first:
{"gene": "Tudor-SN (GeneID 38045)", "DRSC id": "DRSC41253", "averaged z-score": -0.303, "ATP luminescence, replicate 1": 65708, "ATP luminescence, replicate 2": 70682, "Outcome": "inactive"}
{"gene": "Tudor-SN (GeneID 38045)", "DRSC id": "DRSC41254", "averaged z-score": -0.118, "ATP luminescence, replicate 1": 69773, "ATP luminescence, replicate 2": 76385, "Outcome": "inactive"}
{"gene": "Cand1 (GeneID 34403)", "DRSC id": "DRSC01992", "averaged z-score": 0.774, "ATP luminescence, replicate 1": 1.13e5, "ATP luminescence, replicate 2": 85412, "Outcome": "inactive"}

The list goes on.
{"gene": "Cyt-c1L (GeneID 43457)", "DRSC id": "DRSC22096", "averaged z-score": 0.292, "ATP luminescence, replicate 1": 97990, "ATP luminescence, replicate 2": 79926, "Outcome": "inactive"}
{"gene": "Cyt-c1L (GeneID 43457)", "DRSC id": "DRSC28229", "averaged z-score": 0.215, "ATP luminescence, replicate 1": 87972, "ATP luminescence, replicate 2": 80981, "Outcome": "inactive"}
{"gene": "Cyt-c1L (GeneID 43457)", "DRSC id": "DRSC41172", "averaged z-score": 0.0197, "ATP luminescence, replicate 1": 70596, "ATP luminescence, replicate 2": 80956, "Outcome": "inactive"}
{"gene": "Galphai (GeneID 38765)", "DRSC id": "DRSC11168", "averaged z-score": 0.321, "ATP luminescence, replicate 1": 1.09e5, "ATP luminescence, replicate 2": 74930, "Outcome": "inactive"}
{"gene": "Galphai (GeneID 38765)", "DRSC id": "DRSC28521", "averaged z-score": 0.567, "ATP luminescence, replicate 1": 94714, "ATP luminescence, replicate 2": 90631, "Outcome": "inactive"}
{"gene": "Galphai (GeneID 38765)", "DRSC id": "DRSC37302", "averaged z-score": -0.264, "ATP luminescence, replicate 1": 63375, "ATP luminescence, replicate 2": 72826, "Outcome": "inactive"}
{"gene": "GstO3 (GeneID 38972)", "DRSC id": "DRSC10710", "averaged z-score": 0.288, "ATP luminescence, replicate 1": 89831, "ATP luminescence, replicate 2": 80994, "Outcome": "inactive"}
{"gene": "GstO3 (GeneID 38972)", "DRSC id": "DRSC41197", "averaged z-score": -0.292, "ATP luminescence, replicate 1": 64388, "ATP luminescence, replicate 2": 75347, "Outcome": "inactive"}
{"gene": "Rpt3 (GeneID 32047)", "DRSC id": "DRSC23412", "averaged z-score": 0.184, "ATP luminescence, replicate 1": 97561, "ATP luminescence, replicate 2": 86651, "Outcome": "inactive"}
{"gene": "Rpt3 (GeneID 32047)", "DRSC id": "DRSC32208", "averaged z-score": -0.0536, "ATP luminescence, replicate 1": 90665, "ATP luminescence, replicate 2": 47120, "Outcome": "inactive"}
{"gene": "Rpt3 (GeneID 32047)", "DRSC id": "DRSC32209", "averaged z-score": 0.506, "ATP luminescence, replicate 1": 79824, "ATP luminescence, replicate 2": 90322, "Outcome": "inactive"}
{"gene": "Vang (GeneID 35922)", "DRSC id": "DRSC07570", "averaged z-score": -0.199, "ATP luminescence, replicate 1": 95537, "ATP luminescence, replicate 2": 74815, "Outcome": "inactive"}
{"gene": "Vang (GeneID 35922)", "DRSC id": "DRSC39973", "averaged z-score": -0.297, "ATP luminescence, replicate 1": 79660, "ATP luminescence, replicate 2": 72671, "Outcome": "inactive"}
{"gene": "Vang (GeneID 35922)", "DRSC id": "DRSC41256", "averaged z-score": -0.281, "ATP luminescence, replicate 1": 69272, "ATP luminescence, replicate 2": 65159, "Outcome": "inactive"}
